PubChem BioAssay AID1259285 – Sanger Institute | 2017
Aim: 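Kinase knock-downs that reduce colorectal cancer cell viability or act with drugs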 (primary screen). Cell system: human HCC56 colorectal cancer cells. Reagents: siRNA pool against human genes. Challenge: DMSO vehicle, or anchor drug BYL719 at 1 µM, cetuximab at 5 µg/ml, or trametinib at 10 nM. Read-out: 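Viability as a ratio to non-targeting pool wells, averaged over replicates and turned into a robust z-score; synergy scores with BYL719, cetuximab or trametinib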. Reading the numbers: viability robust z-score, no drug: higher = more viable cells, weaker knock-down effect; viability vs non-targeting pool, no drug: higher = more viable cells. Hit rule: 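a knock-down counts as essential if its viability z-score without drug is under -3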. Calls: active = essential without drug; inactive = no change without drug.
This is an unselected part of 794 reagents. 20 of them (2.5%) were called active. 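Calls rest on the drug-free arm alone and ignore synergy scores; viability ratios seem to be capped at 1.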 Unmarked entries are inactive. Further read-outs or replicates are left out here. No sequences are given here. Not stated in the record: the amount of reagent, the time to read-out.

Target gene	viability robust z-score, no drug	viability vs non-targeting pool, no drug
ADCK1 (GeneID 57143)	0.458	1
LRRK1 (GeneID 79705)	0.458	1
RSKR (GeneID 124923)	0.458	1
PTK6 (GeneID 5753)	0.458	1
LRRK2 (GeneID 120892)	-1.13	0.864
STK24 (GeneID 8428)	0.458	1
MATK (GeneID 4145)	0.458	1
MET (GeneID 4233)	-0.325	0.933
EPHB6 (GeneID 2051)	-0.11	0.951
MAGI2 (GeneID 9863)	0.458	1
CHKA (GeneID 1119)	-2.15	0.776
NF1 (GeneID 4763)	0.458	1
PAK5 (GeneID 57144)	0.458	1
ADK (GeneID 132)	0.458	1
RPS6KL1 (GeneID 83694)	0.458	1
RPS6KA5 (GeneID 9252)	-0.915	0.882
TSSK1B (GeneID 83942)	0.374	0.993
LATS2 (GeneID 26524)	0.458	1
CDK14 (GeneID 5218)	0.458	1
FES (GeneID 2242)	0.458	1

3 neighbouring entries already listed, quoted:
Target gene	viability robust z-score, no drug	viability vs non-targeting pool, no drug
MET (GeneID 4233)	-0.325	0.933
EPHB6 (GeneID 2051)	-0.11	0.951
MAGI2 (GeneID 9863)	0.458	1
